# Screening data, single-dose tests

The chains behind the UniProt entries cited, without tags or fusion partners. Residues count along the entry.
UniProt Q8IDJ8, 1-583: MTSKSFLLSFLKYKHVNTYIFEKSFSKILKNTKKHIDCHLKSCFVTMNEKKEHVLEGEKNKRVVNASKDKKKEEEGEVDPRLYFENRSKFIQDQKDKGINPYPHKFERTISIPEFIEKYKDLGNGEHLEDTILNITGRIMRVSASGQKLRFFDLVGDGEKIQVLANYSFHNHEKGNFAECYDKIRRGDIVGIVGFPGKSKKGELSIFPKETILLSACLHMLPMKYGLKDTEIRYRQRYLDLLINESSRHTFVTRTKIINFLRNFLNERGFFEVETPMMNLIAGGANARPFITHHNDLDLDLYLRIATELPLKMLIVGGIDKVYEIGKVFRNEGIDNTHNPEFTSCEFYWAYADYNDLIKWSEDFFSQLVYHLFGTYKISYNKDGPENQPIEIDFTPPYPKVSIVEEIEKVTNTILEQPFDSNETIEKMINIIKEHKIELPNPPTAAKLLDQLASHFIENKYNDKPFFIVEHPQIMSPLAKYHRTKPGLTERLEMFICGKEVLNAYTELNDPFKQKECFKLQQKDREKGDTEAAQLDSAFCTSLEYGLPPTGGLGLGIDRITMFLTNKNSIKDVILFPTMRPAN
UniProt Q4DA54, 1-478: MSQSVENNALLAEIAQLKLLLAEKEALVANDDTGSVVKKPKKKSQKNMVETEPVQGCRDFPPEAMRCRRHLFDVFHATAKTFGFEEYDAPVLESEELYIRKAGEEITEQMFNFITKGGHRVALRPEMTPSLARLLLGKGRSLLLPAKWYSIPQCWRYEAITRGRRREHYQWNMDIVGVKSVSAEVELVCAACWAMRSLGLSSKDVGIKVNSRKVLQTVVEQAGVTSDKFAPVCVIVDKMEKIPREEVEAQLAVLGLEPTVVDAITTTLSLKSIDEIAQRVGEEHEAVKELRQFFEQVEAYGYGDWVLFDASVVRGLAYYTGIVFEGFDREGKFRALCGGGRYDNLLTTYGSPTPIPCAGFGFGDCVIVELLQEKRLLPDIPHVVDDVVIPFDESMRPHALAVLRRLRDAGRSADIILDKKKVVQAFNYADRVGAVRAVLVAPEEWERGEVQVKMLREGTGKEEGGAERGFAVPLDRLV
UniProt I6X8D2, whole entry: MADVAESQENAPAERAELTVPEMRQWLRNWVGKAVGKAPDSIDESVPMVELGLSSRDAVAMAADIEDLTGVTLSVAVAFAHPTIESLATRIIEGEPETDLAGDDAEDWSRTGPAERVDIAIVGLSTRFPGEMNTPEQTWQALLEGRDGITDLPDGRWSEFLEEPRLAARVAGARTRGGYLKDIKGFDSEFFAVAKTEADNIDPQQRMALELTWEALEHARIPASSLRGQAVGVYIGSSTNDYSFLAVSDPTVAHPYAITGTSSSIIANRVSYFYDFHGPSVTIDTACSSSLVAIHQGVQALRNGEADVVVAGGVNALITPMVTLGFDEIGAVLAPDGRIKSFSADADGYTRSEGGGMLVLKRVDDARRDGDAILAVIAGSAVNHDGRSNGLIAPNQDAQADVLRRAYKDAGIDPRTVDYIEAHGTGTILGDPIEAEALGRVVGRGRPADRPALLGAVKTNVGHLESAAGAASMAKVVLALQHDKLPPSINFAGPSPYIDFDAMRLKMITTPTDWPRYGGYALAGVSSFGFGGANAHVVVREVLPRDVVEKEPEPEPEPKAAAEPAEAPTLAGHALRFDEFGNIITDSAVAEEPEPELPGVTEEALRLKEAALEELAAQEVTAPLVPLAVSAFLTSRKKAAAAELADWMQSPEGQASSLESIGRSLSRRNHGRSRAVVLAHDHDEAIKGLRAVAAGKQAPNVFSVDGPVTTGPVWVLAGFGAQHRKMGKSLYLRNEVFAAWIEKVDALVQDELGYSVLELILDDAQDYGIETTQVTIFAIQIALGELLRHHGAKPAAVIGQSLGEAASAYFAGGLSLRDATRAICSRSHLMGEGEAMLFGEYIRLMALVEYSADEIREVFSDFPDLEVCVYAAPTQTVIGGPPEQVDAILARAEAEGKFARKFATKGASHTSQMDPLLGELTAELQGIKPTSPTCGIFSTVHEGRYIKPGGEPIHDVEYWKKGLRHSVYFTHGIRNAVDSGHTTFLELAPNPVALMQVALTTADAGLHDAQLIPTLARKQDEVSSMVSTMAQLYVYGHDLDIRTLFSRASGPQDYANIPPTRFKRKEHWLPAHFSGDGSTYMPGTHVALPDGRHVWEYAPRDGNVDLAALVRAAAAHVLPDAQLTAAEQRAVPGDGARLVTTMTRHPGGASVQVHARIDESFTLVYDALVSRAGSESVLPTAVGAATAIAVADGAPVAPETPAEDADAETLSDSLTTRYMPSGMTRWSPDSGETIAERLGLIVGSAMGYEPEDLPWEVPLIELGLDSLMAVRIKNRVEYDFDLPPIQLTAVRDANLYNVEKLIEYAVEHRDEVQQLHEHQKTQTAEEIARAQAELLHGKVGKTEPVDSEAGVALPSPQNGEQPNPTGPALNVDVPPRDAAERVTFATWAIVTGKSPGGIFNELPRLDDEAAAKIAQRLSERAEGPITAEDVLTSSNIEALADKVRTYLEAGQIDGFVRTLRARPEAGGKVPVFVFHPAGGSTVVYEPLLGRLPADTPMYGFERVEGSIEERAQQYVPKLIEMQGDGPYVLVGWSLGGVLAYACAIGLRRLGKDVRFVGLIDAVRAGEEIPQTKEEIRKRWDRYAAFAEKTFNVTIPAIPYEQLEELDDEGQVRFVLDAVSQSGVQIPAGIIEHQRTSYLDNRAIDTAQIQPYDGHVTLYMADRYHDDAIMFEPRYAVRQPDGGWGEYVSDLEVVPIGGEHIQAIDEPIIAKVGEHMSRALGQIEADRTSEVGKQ

Source: ChEMBL document CHEMBL3988442, “University of Dundee, Small-Polar-MMV Screening Library” (2021).

PfKRS1: 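Enzyme assay of the cytosolic lysyl-tRNA synthetase in 384-well plates, read by luminescence. Target: Lysine-tRNA ligase, Plasmodium falciparum 3D7 (UniProt Q8IDJ8). Tested at 30 µM. Direction is inferred from only a few compounds that gave an IC50; most scored high, so higher reads as stronger inhibition. About 69,000 compounds were tested under these conditions; 0.071% (about 49) showed 50% or more at least once.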
TcHisRS: 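Enzyme assay of histidyl-tRNA synthetase; the read-out is not stated. Target: Histidine-tRNA ligase, Trypanosoma cruzi CL Brener (UniProt Q4DA54). Tested at 30 µM. The record gives no direction; compounds that gave an IC50 in retests scored well above the rest, so higher reads as stronger inhibition. About 69,000 compounds were tested under these conditions; 0.045% (about 31) showed 50% or more at least once.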
Leishmania in macrophages: 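Cell assay of Leishmania donovani living inside macrophages; the read-out is not stated. Concentration: 30 µM. Higher reads as stronger inhibition (inferred: compounds with an IC50 in retests scored well above the rest). About 69,000 compounds were tested under these conditions; 1.5% (about 1,000) showed 50% or more at least once.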
Pks13 thioesterase: 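Polyketide synthase Pks13, Mycobacterium tuberculosis (UniProt I6X8D2). Enzyme assay of the thioesterase domain of polyketide synthase 13; the read-out is not stated. Concentration: 30 µM. Higher reads as stronger inhibition (inferred from which compounds were picked for retests). Size under these conditions: about 67,000 compounds, about 300 of them at 50% or above in at least one test.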

The filed quantity is “Percent Effect” (%). How 0% and 100% were set is not recorded. Most values in the screen are low, and negative values occur. The compounds are a random part of those screened. Two or more numbers in one place are separate tests of the same structure; such repeats can differ widely. A dash means the value is not listed here; it may have been measured.

| # | structure | PfKRS1 | TcHisRS | Leishmania in macrophages | Pks13 thioesterase |
|---|---|---|---|---|---|
| 1 | `COc1cccc(-n2nnc(C(=O)N3CCCCCC3)c2C)c1` | -1.519 | 4.399 | 10.04 | -15.59 |
| 2 | `O=C1Nc2ccccc2CN(C/C=C/c2ccccc2)C12CCNC2` (stereo not drawn) | 5.812 | 12.43 | 95.58 | -19.28 |
| 3 | `Cc1ccnc(NC(=O)CSCc2cccnc2)c1` | 8.954 | 5.056 | 16.48 | -1.077 |
| 4 | `CC(=O)N1CC[C@@H]2CN(Cc3ccncc3)S(=O)(=O)[C@@H]2CC1` | 4.843 | 4.301 | - | -45.83 |
| 5 | `CC(=O)c1cnc(NCCN2CCCC(c3ccccc3)C2)nc1C` (stereo not drawn) | -2.174 | 10.05 | -39.73 | 12.84 |
| 6 | `CC(C)(C)C(=O)NCCCC(=O)NC(C)(C)c1ccc2c(c1)OCO2` | -2.417 | 4.933 | 24.75 | -7.947 |
| 7 | `Cc1nc(CN2CCc3nc(N4CCCC4)nc(NC(C)C)c3C2)cs1` | -0.2454 | 14.72 | 51.28 | -20.18 |
| 8 | `c1ccc(-c2noc([C@@H]3Cc4nc[nH]c4CN3)n2)cc1` | 2.899 | 2.97 | 22.92 | -34.93 |
| 9 | `Cc1cccc(C(=O)N2CC(=O)N(c3ccccc3Cl)CC2C)n1` (stereo not drawn) | 1.187 | -1.786 | -17.27 | 19.75 |
| 10 | `CCCC(=O)N(CC)C(c1cccnc1)c1ccc2c(c1)CCO2` (stereo not drawn) | -1.114 | 3.061 | 25.27 | -7.224 |
| 11 | `COC(=O)Cn1c(C)cc(=O)n2nc(-c3cccs3)nc12` | 6.557 | -2.439 | 30.52 & 16.12 | 0.7375 |
| 12 | `COCC1CC2(CCN(S(=O)(=O)C3CC3)CC2)CN1c1ncccn1` (stereo not drawn) | 4.884 | 0.9804 | - | - |
| 13 | `O=C(Nc1nccs1)N(CCO)Cc1ccsc1` | 6.439 | 1.901 | -20.29 | -17.46 |
| 14 | `Cc1cccc(C(=O)N2C[C@@H]3CCN(C(C)C)C[C@@H]3C2)c1` | -3.442 | 7.767 | - | -45.49 |
| 15 | `COc1ccccc1C(C)CNC(=O)c1c(C)nn(C)c1OC` (stereo not drawn) | 4.853 | -1.63 | 24.52 | -36.69 |
| 16 | `Cc1cc(C(=O)NCc2ccc(F)cc2)c2c(C3CCCN3)noc2n1` (stereo not drawn) | 3.455 | 2.959 | 15.37 | -27.38 |
| 17 | `[H][C@@]12OCCN(C(=O)c3ccc(C)o3)[C@@]1([H])CC[C@H]2OCC1CCOCC1` | - | - | 21.81 | - |
| 18 | `CN(CCNS(C)(=O)=O)CC(c1cccs1)N1CCOCC1` (stereo not drawn) | 3.859 | 6.061 | 3.826 | -20.97 |
| 19 | `CCN(CC)C(=O)CS(=O)(=O)c1cc(OC)c(OC)cc1C` | -0.6043 | 0 | -79.93 | -3.003 |
| 20 | `CCNc1ncc(CN2C[C@H]3CC[C@@H]2CN(C(=O)C2CCC2)C3)cn1` | 3.401 | 7.097 | - | -13.73 |
| 21 | `O=C(O)C(F)(F)F.[H][C@@]12CCN(CC3CCOCC3)[C@@]1([H])CCN2C(=O)c1cccc(C#N)c1` | - | - | 40.52 | - |
| 22 | `N#CC1(C(=O)N2C[C@H]3CC[C@@H]2CN(Cc2cscn2)C3)CCOCC1` | 1.349 | 0 | - | -21.39 |
| 23 | `O=C(O)C(F)(F)F.[H][C@@]12CCN(c3ccncn3)[C@]1([H])CC[C@@H](C(=O)N1CCCCO1)O2` | - | - | -0.3037 | - |
| 24 | `[H][C@@]12CCN(C(=O)Cc3cccc(F)c3)C[C@@]1([H])O[C@H](c1noc(C)n1)C2` | - | - | 11.6 | - |
| 25 | `Cc1ccc(F)cc1NS(=O)(=O)c1cc2c(c(C(=O)O)c1)OCCO2` | 0.5605 | 0.578 | 10.19 | -14.93 |
| 26 | `CCC1CCCCN1C(=O)c1ccc2[nH]nnc2c1` (stereo not drawn) | 4.01 | -26.2 | 14.84 | -59.74 |
| 27 | `Fc1cccc(N2CCc3ncnc(C4CC4)c3CC2)c1` | 6.183 | 8.046 | 15.99 | -32.47 |
| 28 | `CCn1ccc(C(=O)N2CCCN(Cc3ccccc3F)CC2)cc1=O` | 3.71 | 0 | -13.54 | -5.35 |
| 29 | `O=C(O)C(F)(F)F.O=C(O)C(F)(F)F.[H][C@]12CCC[C@@]1(COc1cccnc1)CN(c1ccc(C)nn1)C2` | - | - | -0.8459 | - |
| 30 | `O=C(Cn1cccc(S(=O)(=O)N2CCCC2)c1=O)c1ccccc1Cl` | 1.82 | 3.627 | 1.42 | -10.56 |
| 31 | `Cc1ccc2nc(CN3CCCCC3C(=O)N3CCOCC3)cn2c1` (stereo not drawn) | 0.943 | 1.493 | 46.17 | -1.101 |
| 32 | `COc1c(CNC(c2ccccc2)c2ccc(F)cc2)c(C)nn1C` (stereo not drawn) | -0.785 | 0.5917 | 35.38 | 5.313 |